Laboratory results from the supplement of paper PMC10849652.
Some of the results follow.

By UniProt entry, the sequences of proteins in these tests, tags left out. Where a name states a change or a piece, a line headed by the entry shows the natural chain unless it says otherwise.
UniProt Q9P2X0: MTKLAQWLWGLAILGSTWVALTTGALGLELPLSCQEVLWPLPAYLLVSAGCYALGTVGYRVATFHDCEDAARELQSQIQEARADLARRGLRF
UniProt Q96G04: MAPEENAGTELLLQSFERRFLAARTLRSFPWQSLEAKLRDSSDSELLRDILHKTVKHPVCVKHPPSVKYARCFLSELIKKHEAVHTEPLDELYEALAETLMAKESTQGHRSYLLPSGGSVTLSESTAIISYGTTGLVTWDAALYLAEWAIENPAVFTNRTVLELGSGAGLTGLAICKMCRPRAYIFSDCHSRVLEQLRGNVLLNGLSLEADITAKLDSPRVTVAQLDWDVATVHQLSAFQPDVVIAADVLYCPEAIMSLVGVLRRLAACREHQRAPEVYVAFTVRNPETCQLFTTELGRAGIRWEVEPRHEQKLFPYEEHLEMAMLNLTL
UniProt Q8TCX1: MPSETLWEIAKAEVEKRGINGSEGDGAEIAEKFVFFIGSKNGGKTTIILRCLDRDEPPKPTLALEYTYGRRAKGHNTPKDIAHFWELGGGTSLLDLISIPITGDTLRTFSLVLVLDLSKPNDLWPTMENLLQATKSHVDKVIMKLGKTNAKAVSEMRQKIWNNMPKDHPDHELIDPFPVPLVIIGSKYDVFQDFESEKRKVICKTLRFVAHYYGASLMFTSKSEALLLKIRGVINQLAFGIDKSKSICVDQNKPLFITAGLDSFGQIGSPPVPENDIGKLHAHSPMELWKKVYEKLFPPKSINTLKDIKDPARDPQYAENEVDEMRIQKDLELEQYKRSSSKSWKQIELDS
UniProt Q02487, whole entry, looked up: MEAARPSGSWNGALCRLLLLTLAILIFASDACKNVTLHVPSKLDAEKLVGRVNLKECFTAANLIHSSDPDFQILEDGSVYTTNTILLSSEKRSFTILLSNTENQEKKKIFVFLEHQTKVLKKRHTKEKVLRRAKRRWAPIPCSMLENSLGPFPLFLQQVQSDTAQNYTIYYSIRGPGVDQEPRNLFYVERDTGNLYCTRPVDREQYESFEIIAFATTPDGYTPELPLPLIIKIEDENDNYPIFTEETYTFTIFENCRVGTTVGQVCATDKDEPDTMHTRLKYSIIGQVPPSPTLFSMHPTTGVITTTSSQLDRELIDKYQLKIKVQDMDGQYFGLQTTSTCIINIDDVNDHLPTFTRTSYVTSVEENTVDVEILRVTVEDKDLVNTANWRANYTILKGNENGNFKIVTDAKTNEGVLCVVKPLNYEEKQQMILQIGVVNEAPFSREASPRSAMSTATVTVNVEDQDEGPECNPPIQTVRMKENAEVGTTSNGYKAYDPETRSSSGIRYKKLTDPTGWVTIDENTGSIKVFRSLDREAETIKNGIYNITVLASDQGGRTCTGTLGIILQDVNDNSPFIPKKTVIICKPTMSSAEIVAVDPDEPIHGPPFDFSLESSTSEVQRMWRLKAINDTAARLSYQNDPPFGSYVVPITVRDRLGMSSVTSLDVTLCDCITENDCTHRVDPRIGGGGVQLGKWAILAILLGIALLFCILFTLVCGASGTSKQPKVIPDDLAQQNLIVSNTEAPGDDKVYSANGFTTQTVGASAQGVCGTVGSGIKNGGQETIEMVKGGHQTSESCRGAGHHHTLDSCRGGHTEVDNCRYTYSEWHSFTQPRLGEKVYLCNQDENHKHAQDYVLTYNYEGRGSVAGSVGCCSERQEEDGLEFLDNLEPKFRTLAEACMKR
UniProt Q7Z388: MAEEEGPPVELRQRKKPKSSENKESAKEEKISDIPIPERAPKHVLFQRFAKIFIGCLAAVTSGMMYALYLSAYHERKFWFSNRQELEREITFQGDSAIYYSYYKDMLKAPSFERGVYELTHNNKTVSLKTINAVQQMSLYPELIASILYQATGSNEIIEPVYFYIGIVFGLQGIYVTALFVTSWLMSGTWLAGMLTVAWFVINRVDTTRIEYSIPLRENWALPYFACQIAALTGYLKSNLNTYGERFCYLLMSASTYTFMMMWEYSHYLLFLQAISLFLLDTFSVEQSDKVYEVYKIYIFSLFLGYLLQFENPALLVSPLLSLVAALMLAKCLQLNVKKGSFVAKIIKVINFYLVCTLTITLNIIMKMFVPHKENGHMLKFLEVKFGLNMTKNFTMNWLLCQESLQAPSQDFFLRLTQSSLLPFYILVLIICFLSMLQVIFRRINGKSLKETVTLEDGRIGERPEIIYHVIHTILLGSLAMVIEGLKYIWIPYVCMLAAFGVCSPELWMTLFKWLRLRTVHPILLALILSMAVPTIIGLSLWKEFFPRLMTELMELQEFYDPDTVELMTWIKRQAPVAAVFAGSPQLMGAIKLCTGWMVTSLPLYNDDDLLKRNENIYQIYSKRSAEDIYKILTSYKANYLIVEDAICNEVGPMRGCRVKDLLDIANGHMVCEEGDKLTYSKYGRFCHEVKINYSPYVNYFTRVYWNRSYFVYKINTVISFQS
UniProt Q92782, whole entry, looked up: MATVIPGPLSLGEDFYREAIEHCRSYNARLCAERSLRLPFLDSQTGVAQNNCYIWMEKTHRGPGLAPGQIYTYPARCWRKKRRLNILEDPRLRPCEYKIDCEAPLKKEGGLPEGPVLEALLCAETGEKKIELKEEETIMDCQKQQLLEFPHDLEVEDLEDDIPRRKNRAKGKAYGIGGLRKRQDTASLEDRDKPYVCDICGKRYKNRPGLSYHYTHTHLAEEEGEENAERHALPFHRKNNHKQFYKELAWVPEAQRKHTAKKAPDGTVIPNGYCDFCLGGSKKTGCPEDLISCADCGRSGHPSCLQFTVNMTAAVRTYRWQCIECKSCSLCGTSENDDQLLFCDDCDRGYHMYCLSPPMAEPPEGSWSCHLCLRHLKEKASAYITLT
UniProt Q9BV94: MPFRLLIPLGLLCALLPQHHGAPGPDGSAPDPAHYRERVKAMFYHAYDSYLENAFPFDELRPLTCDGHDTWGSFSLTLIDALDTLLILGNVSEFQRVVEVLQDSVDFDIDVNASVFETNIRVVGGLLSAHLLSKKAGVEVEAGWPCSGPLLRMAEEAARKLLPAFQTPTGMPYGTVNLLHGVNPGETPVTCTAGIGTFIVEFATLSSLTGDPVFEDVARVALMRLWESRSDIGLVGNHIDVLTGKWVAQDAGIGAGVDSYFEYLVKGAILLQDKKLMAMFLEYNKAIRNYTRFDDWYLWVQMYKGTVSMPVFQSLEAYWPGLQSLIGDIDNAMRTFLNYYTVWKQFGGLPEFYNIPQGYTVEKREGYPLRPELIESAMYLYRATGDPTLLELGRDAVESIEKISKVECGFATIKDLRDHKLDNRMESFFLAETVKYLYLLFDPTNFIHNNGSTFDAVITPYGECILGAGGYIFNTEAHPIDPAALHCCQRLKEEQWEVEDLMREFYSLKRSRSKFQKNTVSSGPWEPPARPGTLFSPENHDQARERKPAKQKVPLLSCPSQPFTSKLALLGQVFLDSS
UniProt Q9NRW4: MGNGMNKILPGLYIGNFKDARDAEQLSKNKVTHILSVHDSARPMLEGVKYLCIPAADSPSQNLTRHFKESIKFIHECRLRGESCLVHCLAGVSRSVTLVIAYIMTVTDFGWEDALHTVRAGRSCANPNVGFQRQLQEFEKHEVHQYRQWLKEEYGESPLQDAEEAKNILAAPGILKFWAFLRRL
UniProt Q8WVE0: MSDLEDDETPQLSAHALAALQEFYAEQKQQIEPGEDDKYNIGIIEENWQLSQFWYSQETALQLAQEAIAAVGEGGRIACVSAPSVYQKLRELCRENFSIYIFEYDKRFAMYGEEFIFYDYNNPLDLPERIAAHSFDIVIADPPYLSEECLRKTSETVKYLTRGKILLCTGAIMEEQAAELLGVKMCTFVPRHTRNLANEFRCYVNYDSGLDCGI
UniProt Q9UII6: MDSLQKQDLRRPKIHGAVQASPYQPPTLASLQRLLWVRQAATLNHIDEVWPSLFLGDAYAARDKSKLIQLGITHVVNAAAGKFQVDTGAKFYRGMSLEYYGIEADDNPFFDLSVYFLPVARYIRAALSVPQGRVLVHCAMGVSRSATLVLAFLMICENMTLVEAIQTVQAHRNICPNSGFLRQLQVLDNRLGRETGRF
UniProt Q5VUJ9: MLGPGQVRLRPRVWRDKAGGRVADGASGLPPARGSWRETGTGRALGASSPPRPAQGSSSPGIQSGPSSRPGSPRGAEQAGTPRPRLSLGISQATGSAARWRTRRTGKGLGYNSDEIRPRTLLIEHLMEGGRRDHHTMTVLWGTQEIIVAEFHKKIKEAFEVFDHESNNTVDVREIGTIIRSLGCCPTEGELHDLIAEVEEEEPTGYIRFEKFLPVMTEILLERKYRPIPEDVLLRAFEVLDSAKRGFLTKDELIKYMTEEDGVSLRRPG
UniProt Q7L9B9: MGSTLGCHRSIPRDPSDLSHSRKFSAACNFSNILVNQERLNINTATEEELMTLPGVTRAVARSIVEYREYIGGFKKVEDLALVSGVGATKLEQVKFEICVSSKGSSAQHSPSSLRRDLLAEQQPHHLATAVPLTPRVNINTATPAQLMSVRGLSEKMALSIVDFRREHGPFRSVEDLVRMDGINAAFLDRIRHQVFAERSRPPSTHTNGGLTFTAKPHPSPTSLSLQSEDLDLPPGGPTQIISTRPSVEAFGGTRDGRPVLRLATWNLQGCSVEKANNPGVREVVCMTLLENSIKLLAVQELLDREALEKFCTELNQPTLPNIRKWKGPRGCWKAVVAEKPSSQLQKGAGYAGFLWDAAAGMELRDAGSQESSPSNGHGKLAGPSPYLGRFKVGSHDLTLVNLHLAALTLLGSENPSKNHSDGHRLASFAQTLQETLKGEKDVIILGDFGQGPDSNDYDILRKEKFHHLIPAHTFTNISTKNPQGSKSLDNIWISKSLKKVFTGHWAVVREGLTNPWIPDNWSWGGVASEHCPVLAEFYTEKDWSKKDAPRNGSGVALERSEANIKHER
UniProt P29692: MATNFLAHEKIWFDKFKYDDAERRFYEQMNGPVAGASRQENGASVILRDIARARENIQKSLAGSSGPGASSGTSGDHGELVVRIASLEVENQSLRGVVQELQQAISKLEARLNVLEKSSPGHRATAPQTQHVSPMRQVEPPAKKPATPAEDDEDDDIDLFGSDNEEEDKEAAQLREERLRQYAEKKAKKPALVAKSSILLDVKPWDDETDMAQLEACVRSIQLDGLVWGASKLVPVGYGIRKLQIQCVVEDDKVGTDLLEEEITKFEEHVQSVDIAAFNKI
UniProt Q14156: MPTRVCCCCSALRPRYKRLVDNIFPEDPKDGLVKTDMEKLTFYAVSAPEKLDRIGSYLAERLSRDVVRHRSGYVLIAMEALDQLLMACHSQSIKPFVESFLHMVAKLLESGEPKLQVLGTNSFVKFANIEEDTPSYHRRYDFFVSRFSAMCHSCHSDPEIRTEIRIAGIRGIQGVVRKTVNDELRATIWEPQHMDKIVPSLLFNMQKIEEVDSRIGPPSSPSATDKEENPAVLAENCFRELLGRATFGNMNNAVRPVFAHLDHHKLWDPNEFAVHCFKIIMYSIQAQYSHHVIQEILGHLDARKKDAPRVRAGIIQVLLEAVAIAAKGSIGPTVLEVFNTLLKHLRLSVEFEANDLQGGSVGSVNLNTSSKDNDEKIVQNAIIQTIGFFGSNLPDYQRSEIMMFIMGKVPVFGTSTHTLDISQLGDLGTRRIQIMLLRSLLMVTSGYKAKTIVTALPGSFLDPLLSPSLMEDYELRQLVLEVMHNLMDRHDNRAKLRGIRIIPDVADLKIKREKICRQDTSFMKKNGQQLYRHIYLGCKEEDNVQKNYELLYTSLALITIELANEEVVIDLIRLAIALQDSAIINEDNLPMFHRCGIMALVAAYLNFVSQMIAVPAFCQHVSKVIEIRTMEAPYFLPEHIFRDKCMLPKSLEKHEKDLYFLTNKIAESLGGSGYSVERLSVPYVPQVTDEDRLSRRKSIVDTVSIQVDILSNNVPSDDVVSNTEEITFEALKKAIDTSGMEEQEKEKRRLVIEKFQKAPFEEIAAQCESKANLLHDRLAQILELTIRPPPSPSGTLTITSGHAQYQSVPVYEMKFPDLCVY
UniProt O14640: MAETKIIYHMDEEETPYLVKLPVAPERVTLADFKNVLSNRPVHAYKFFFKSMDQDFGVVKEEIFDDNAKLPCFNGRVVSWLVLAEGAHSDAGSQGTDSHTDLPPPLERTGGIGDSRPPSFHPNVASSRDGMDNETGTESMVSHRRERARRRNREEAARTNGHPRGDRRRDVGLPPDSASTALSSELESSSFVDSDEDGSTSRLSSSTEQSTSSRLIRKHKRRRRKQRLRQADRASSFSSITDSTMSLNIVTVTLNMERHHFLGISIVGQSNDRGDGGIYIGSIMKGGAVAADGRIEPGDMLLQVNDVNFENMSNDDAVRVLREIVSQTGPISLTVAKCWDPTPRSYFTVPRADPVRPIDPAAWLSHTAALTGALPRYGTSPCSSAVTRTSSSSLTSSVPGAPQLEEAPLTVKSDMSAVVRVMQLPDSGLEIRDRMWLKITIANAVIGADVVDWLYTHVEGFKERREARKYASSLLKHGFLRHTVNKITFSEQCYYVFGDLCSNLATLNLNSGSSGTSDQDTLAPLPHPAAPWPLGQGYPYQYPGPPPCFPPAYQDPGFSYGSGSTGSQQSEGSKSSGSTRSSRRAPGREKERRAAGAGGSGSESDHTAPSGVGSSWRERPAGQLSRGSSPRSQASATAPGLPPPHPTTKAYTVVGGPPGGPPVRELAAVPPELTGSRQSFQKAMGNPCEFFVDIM

Key:
Assay in all cases: log2 fold change, soluble protein after heating vs DMSO (PISA); higher = thermal stabilisation; K562 lysate, 10 uM; active = over 0.2 and 3.5 SD of the protein, either way, in both replicates (recomputed)
[1] = compound: CS(=O)(=O)CCNCc1ccc(-c2ccc3ncnc(Nc4ccc(OCc5cccc(F)c5)c(Cl)c4)c3c2)o1 [lapatinib]
Procedure, shortened: (§1)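 Log-two fold change in thermal stability relative to solvent controls is reported from duplicates. For each sample, crude K562 extract from dounce-homogenised pellets in PBS pH 7.4 with 1 mM MgCl2, at 1 mg/mL protein, was treated with 10 μM compound for 30 min. Aliquots heated for 3 min across 48°C-58°C were pooled, brought to 0.5% NP-40 at 4°C and cleared at 21,000xg for 90 min. The supernatant was quantified by TMTpro 16plex LC-MS/MS with channel sums equalised.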

[2] = compound: CS(=O)(=O)N1CCN(Cc2cc3nc(-c4cccc5[nH]ncc45)nc(N4CCOCC4)c3s2)CC1 [pictilisib]
Procedure, shortened: as §1

[3] = compound: C[C@@H](Oc1cc(-c2cnn(C3CCNCC3)c2)cnc1N)c1c(Cl)ccc(F)c1Cl [crizotinib]
Procedure, shortened: as §1

[4] = compound: C[C@H](C1=CC=C(C=C1)C(=O)NC2=C3C=CNC3=NC=C2)N
Procedure, shortened: as §1

[5] = compound: Cc1cc(Nc2cc(CN3CCOCC3)c3nc(C)c(Cc4ccc(Cl)cc4F)n3n2)n[nH]1 [gandotinib]
Procedure, shortened: as §1

[6] = compound: Cc1ccc(-n2nc(C(C)(C)C)cc2NC(=O)Nc2ccc(OCCN3CCOCC3)c3ccccc23)cc1 [doramapimod]
Procedure, shortened: as §1

[7] = compound: Cc1ccc(NC(=O)c2ccc(CN3CC[C@H](N(C)C)C3)c(C(F)(F)F)c2)cc1Nc1nccc(-c2cncnc2)n1 [bafetinib]
Procedure, shortened: as §1

[8] = compound: Cc1cccc(CC(=O)N2CCc3c2ccc(-c2cn(C)c4ncnc(N)c24)c3F)n1
Procedure, shortened: as §1

[9] = compound: Cc1cn(-c2cc(NC(=O)c3ccc(C)c(Nc4nccc(-c5cccnc5)n4)c3)cc(C(F)(F)F)c2)cn1 [nilotinib]
Procedure, shortened: as §1

[10] = compound: Cc1nc(Nc2n[nH]c3c2CN(C(=O)N[C@H](CN(C)C)c2ccccc2)C3(C)C)c2sccc2n1
Procedure, shortened: as §1

[11] = compound: Cc1ncc(-c2ccnc(Nc3ccc(S(C)(=O)=O)cc3)n2)n1C(C)C
Procedure, shortened: as §1

[12] = compound: Cn1cc(CNCC2CCN(c3ncc(C(=O)NO)cn3)CC2)c2ccccc21 [quisinostat]
Procedure, shortened: as §1

[13] = compound: Cn1cncc1[C@@](N)(c1ccc(Cl)cc1)c1ccc2c(c1)c(-c1cccc(Cl)c1)cc(=O)n2C [tipifarnib]
Procedure, shortened: as §1

[14] = compound: NC(=O)Nc1cc(-c2cccc(F)c2)sc1C(=O)N[C@H]1CCCNC1
Procedure, shortened: as §1

[15] = compound: NC(=O)c1cnc(N[C@@H]2CCCC[C@@H]2N)nc1Nc1cccc(-n2nccn2)c1
Procedure, shortened: as §1

[16] = compound: NC1(c2ccc(-c3nc4ccn5c(=O)[nH]nc5c4cc3-c3ccccc3)cc2)CCC1
Procedure, shortened: as §1

[17] = compound: C[C@H](Nc1ncnc2nc[nH]c12)c1cc2cccc(Cl)c2c(=O)n1-c1ccccc1 [duvelisib]
Procedure, shortened: as §1

[18] = compound: Cc1cc(Nc2cc(N3CCN(C)CC3)nc(Sc3ccc(NC(=O)C4CC4)cc3)n2)n[nH]1 [tozasertib]
Procedure, shortened: as §1

[19] = compound: Cc1nc(Nc2ncc(C(=O)Nc3c(C)cccc3Cl)s2)cc(N2CCN(CCO)CC2)n1 [dasatinib]
Procedure, shortened: as §1

[20] = compound: Cn1cc(-c2ccc3c(c2)CCN3C(=O)Cc2cccc(C(F)(F)F)c2)c2c(N)ncnc21
Procedure, shortened: as §1

Target | log2 fold change [1] | log2 fold change [2] | log2 fold change [3] | log2 fold change [4] | log2 fold change [5] | log2 fold change [6] | log2 fold change [7] | log2 fold change [8] | log2 fold change [9] | log2 fold change [10] | log2 fold change [11] | log2 fold change [12] | log2 fold change [13] | log2 fold change [14] | log2 fold change [15] | log2 fold change [16] | log2 fold change [17] | log2 fold change [18] | log2 fold change [19] | log2 fold change [20]
DPM3 isoform 2 (UniProt Q9P2X0) | inactive: -0.028 | inactive: 0 | inactive: 0.025 | inactive: 0.169 | inactive: -0.053 | inactive: -0.013 | inactive: -0.111 | inactive: 0.036 | inactive: 0.037 | inactive: -0.18 | inactive: 0.121 | inactive: 0.098 | inactive: -0.006 | inactive: -0.143 | inactive: 0 | inactive: 0.041 | – | – | – | –
EEF2KMT (UniProt Q96G04) | – | – | inactive: 0.02 | inactive: 0.182 | inactive: -0.083 | inactive: 0.124 | – | inactive: 0.078 | inactive: -0.079 | inactive: 0.25 | inactive: 0.166 | inactive: -0.133 | inactive: -0.269 | inactive: 0 | – | inactive: 0.048 | inactive: 0.035 | inactive: 0.063 | inactive: -0.004 | inactive: -0.088
DYNC2LI1 (UniProt Q8TCX1) | – | inactive: -0.002 | inactive: -0.038 | inactive: -0.057 | inactive: -0.002 | inactive: 0.082 | inactive: -0.083 | inactive: -0.013 | inactive: -0.009 | inactive: 0.031 | inactive: 0.045 | inactive: -0.035 | inactive: -0.048 | inactive: 0.134 | – | – | inactive: 0.017 | – | inactive: -0.001 | inactive: 0.044
DTX3L (UniProt Q8TDB6) | – | inactive: -0.157 | inactive: 0.026 | inactive: -0.058 | inactive: 0.01 | inactive: -0.052 | inactive: -0.228 | inactive: -0.105 | – | – | – | inactive: -0.013 | – | inactive: 0.053 | – | inactive: 0.03 | inactive: 0.076 | inactive: -0.015 | inactive: -0.052 | inactive: -0.057
DSC2 (UniProt Q02487) | – | inactive: -0.088 | inactive: -0.027 | inactive: -0.033 | inactive: 0.078 | inactive: 0.207 | inactive: 0.01 | inactive: 0.068 | – | – | – | inactive: 0.069 | – | inactive: 0.035 | – | inactive: 0.012 | inactive: -0.047 | inactive: 0.188 | inactive: -0.137 | inactive: -0.002
DPY19L4 (UniProt Q7Z388) | – | inactive: -0.202 | inactive: -0.071 | inactive: -0.064 | inactive: 0.02 | inactive: 0.004 | inactive: -0.052 | inactive: 0.036 | inactive: -0.117 | inactive: -0.126 | inactive: 0.069 | inactive: -0.021 | inactive: -0.021 | inactive: -0.023 | – | inactive: 0.011 | inactive: 0.185 | inactive: -0.055 | inactive: 0.162 | inactive: 0.062
DUSP12 (UniProt V9GYV5) | – | – | – | inactive: -0.085 | inactive: 0.047 | – | – | inactive: 0.152 | – | – | – | – | – | – | – | – | – | – | – | –
DPF1 isoform 2 (UniProt Q92782) | inactive: -0.059 | inactive: 0.074 | inactive: 0.042 | – | – | inactive: 0.055 | inactive: -0.007 | – | – | – | – | inactive: -0.033 | – | inactive: 0.001 | inactive: 0.096 | inactive: -0.091 | inactive: -0.216 | inactive: 0.097 | inactive: -0.46 | inactive: 0.467
EDEM2 (UniProt Q9BV94) | inactive: -0.098 | – | inactive: 0.149 | inactive: -0.084 | inactive: 0.026 | inactive: -0.001 | – | inactive: 0.031 | inactive: -0.023 | inactive: -0.071 | inactive: -0.016 | inactive: 0.158 | inactive: 0.004 | inactive: -0.027 | inactive: -0.074 | inactive: -0.139 | inactive: 0.081 | inactive: -0.078 | inactive: 0.065 | inactive: 0.008
DPYSL3 isoform 2 (UniProt Q14195) | – | – | inactive: 0.059 | – | – | inactive: 0 | – | – | – | – | – | inactive: 0.003 | – | inactive: 0.141 | – | – | – | inactive: 0.015 | – | –
DSG3 (UniProt P32926) | – | inactive: -0.162 | – | inactive: -0.008 | inactive: 0.11 | – | inactive: 0.185 | inactive: 0.232 | – | – | – | – | – | – | – | – | – | – | – | –
DUSP22 isoform 2 (UniProt Q9NRW4) | inactive: 0.031 | inactive: -0.082 | – | inactive: -0.058 | inactive: 0.03 | – | inactive: 0.018 | inactive: 0.037 | inactive: -0.039 | inactive: -0.073 | inactive: 0.064 | – | inactive: 0.038 | – | inactive: 0.036 | inactive: 0.109 | inactive: 0.038 | – | inactive: -0.022 | inactive: -0.001
DYRK1A isoform 2 (UniProt Q13627) | – | inactive: -0.166 | inactive: -0.071 | inactive: -0.171 | inactive: 0.014 | inactive: 0.092 | inactive: 0.145 | inactive: 0.034 | – | – | – | inactive: -0.095 | – | inactive: 0.139 | – | inactive: -0.047 | – | – | – | –
EEF1AKMT1 (UniProt Q8WVE0) | inactive: -0.055 | inactive: -0.046 | inactive: -0.163 | – | – | inactive: 0.028 | inactive: -0.115 | – | inactive: 0.054 | inactive: -0.005 | inactive: -0.046 | inactive: -0.031 | inactive: -0.122 | inactive: -0.013 | inactive: 0.142 | inactive: 0.08 | inactive: -0.047 | inactive: 0.258 | inactive: -0.147 | inactive: 0.053
DUSP13 isoform 4 (UniProt Q9UII6) | – | – | – | – | – | – | – | – | – | – | – | – | – | – | – | inactive: 0.003 | – | – | – | –
DPY19L3 (UniProt Q6ZPD9) | inactive: -0.077 | inactive: -0.268 | inactive: -0.107 | – | – | inactive: -0.081 | inactive: -0.113 | – | – | – | – | inactive: -0.103 | – | inactive: 0.034 | inactive: 0.045 | active: -0.683 | – | inactive: 0.057 | – | –
DSTYK (UniProt Q6XUX3) | – | – | inactive: -0.109 | inactive: 0.087 | inactive: -0.105 | inactive: 0.013 | – | inactive: 0.011 | inactive: -0.015 | inactive: 0.037 | inactive: -0.006 | inactive: -0.124 | inactive: -0.081 | inactive: -0.007 | – | inactive: 0.383 | – | – | – | –
DRAP1 (UniProt E9PQX9) | inactive: -0.038 | inactive: 0.07 | – | inactive: -0.075 | inactive: 0.067 | – | inactive: -0.067 | inactive: 0.005 | – | – | – | – | – | – | inactive: 0.032 | – | inactive: -0.021 | inactive: 0.048 | inactive: -0.275 | inactive: 0.028
EFCAB2 isoform 2 (UniProt Q5VUJ9) | – | – | inactive: 0.06 | inactive: -0.162 | inactive: -0.084 | inactive: 0.076 | – | inactive: 0.054 | inactive: -0.078 | inactive: -0.065 | inactive: 0 | inactive: 0.101 | inactive: -0.099 | inactive: -0.072 | – | inactive: -0.027 | – | inactive: 0.104 | – | –
EEPD1 (UniProt Q7L9B9) | – | – | inactive: -0.007 | – | – | inactive: 0.068 | – | – | – | – | – | inactive: 0.071 | – | inactive: -0.138 | – | – | – | – | – | –
EEF1D isoform 3 (UniProt P29692) | inactive: -0.068 | inactive: -0.366 | inactive: 0.197 | – | – | inactive: -0.151 | inactive: -0.215 | – | – | – | – | inactive: 0.011 | – | inactive: 0 | inactive: -0.393 | inactive: -0.056 | – | – | – | –
EFR3A (UniProt Q14156) | inactive: -0.038 | inactive: -0.171 | – | inactive: -0.062 | inactive: -0.076 | – | inactive: -0.106 | inactive: 0.208 | inactive: -0.103 | inactive: -0.016 | inactive: 0.059 | – | inactive: 0.064 | – | inactive: 0.037 | inactive: -0.002 | inactive: 0.125 | inactive: 0.073 | inactive: -0.082 | inactive: 0.015
DVL1 (UniProt O14640) | – | – | – | – | – | – | – | – | – | – | – | – | – | – | – | – | – | inactive: 0.148 | – | –
DST isoform 3 (UniProt Q03001) | – | inactive: 0.049 | – | active: 1.39 | inactive: -0.243 | – | inactive: -0.118 | inactive: -0.224 | – | – | – | – | – | – | – | inactive: -0.071 | – | inactive: -0.056 | – | –
DPF3 isoform 3 (UniProt Q92784) | – | inactive: 0.016 | – | – | – | – | inactive: 0.102 | – | inactive: 0.147 | inactive: 0.06 | inactive: 0.01 | – | inactive: 0.069 | – | – | – | – | – | – | –

Some entries already given, showing only log2 fold change [6].

| Target | log2 fold change [6] |
| --- | --- |
| DTX3L (UniProt Q8TDB6) | inactive: -0.052 |
| DPY19L3 (UniProt Q6ZPD9) | inactive: -0.081 |

Part of the list above, reformatted:
Target	log2 fold change [1]	log2 fold change [2]	log2 fold change [3]	log2 fold change [4]	log2 fold change [5]	log2 fold change [6]	log2 fold change [7]	log2 fold change [8]	log2 fold change [9]	log2 fold change [10]	log2 fold change [11]	log2 fold change [12]	log2 fold change [13]	log2 fold change [14]	log2 fold change [15]	log2 fold change [16]	log2 fold change [17]	log2 fold change [18]	log2 fold change [19]	log2 fold change [20]
EFCAB2 isoform 2 (UniProt Q5VUJ9)	–	–	inactive: 0.06	inactive: -0.162	inactive: -0.084	inactive: 0.076	–	inactive: 0.054	inactive: -0.078	inactive: -0.065	inactive: 0	inactive: 0.101	inactive: -0.099	inactive: -0.072	–	inactive: -0.027	–	inactive: 0.104	–	–
EEPD1 (UniProt Q7L9B9)	–	–	inactive: -0.007	–	–	inactive: 0.068	–	–	–	–	–	inactive: 0.071	–	inactive: -0.138	–	–	–	–	–	–
